The text below walks through data of article PMC4564187, “Pharmacokinetic and Pharmacodynamic Characterisation of an Anti-Mouse TNF Receptor 1 Domain Antibody Formatted for In Vivo Half-Life Extension” (PLoS ONE, 2015).

No constants are given. Whether binding was seen depends on the method and setting.

In this assay the target is DMS5540. Kind of assay: SEC; analytical SEC, TSK G2000 SWXL, 0.5 ml/min, sodium phosphate pH6.8 based mobile phase with 5% organic solvent; 10 μl of 0.6 mg/ml DMS5540; both purified.

B1: DMS5540 (bispecific antibody)
chain: EVQLLESGGGLVQPGGSLRLSCAASGFTFNRYSMGWLRQAPGKGLEWVSRIDSYGRGTYYEDPVKGRFSISRDNSKNTLYLQMNSLRAEDTAVYYCAKISQFGSNAFDYWGQGTQVTVSSASTDIQMTQSPSSLSASVGDRVTITCRASRPIGTMLSWYQQKPGKAPKLLILFGSRLQSGVPSRFSGSGSGTDFTLTISSLQPEDFATYYCAQAGTHPTTFGQGTKVEIKR
notes: anti-mouse TNFR1 VH dAb DOM1m-21-23; three residue linker (Ala-Ser-Thr); About 25 kDa; two human single variable domains on one chain; also called mouse TNFR1 antagonist; genetic fusion of DOM1m-21-23 with the AlbudAb DOM7h-11-12; source: E. coli BL21(DE3) strain derivatives, purified from culture supernatant (Protein-A, cation exchange, SEC when necessary)
For the molecule B1, the binding result is reported as “no binding (tested: 0.6mg/ml)”.
